PubChem BioAssay AID1259424 – University of Nebraska Medical Center, 2018
The deposit covers about 14,000 reagents; this is a part drawn at random. 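Higher correlation or smaller distance means closer resemblance to KSR1 loss; control wells, including KSR1 knockdowns, recur on many plates.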 Not all columns of the deposit are shown. Not stated in the record: the time to read-out.

- Purpose: 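Seek colon cancer survival genes behaving like KSR1, using a six-gene signature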 (primary screen)
- System: human HCT116 colon cancer cells
- Knock-down reagent: siRNA pool against human genes, 50 nM
- Detection: 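Six signature mRNAs by branched-DNA multiplex assay, scaled to two housekeeping genes and non-targeting median, log2; matched to mean KSR1 knockdown profile by Pearson correlation and euclidean distance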
- Scale: mean correlation with KSR1 profile: higher = expression change more like KSR1 knockdown; mean distance from KSR1 profile: higher = expression change less like KSR1 knockdown

MYH2 (myosin heavy chain 2) showed mean correlation with KSR1 profile -0.19; mean distance from KSR1 profile 2.25.
Depletion of BEND3 (BEN domain containing 3) gave: mean correlation with KSR1 profile -0.04; mean distance from KSR1 profile 1.38.
Knock-down of GAGE12I (G antigen 12I) resulted in: mean correlation with KSR1 profile 0.0634; mean distance from KSR1 profile 2.71.
Against CDX4 (caudal type homeobox 4), the values are mean correlation with KSR1 profile -0.673; mean distance from KSR1 profile 2.72.
Knock-down of KIF15 (kinesin family member 15) gave: mean correlation with KSR1 profile -0.162; mean distance from KSR1 profile 1.2.
With knock-down of LRRK1 (leucine rich repeat kinase 1), the record shows mean correlation with KSR1 profile 0.555; mean distance from KSR1 profile 1.74.
Knock-down of LRP2 (LDL receptor related protein 2) resulted in: mean correlation with KSR1 profile 0.548; mean distance from KSR1 profile 2.07.
G2E3 (G2/M-phase specific E3 ubiquitin protein ligase) showed mean correlation with KSR1 profile -0.556; mean distance from KSR1 profile 5.92.
Depletion of AP4M1 (adaptor related protein complex 4 subunit mu 1) came out at: mean correlation with KSR1 profile -0.139; mean distance from KSR1 profile 1.55.
Silencing of RARS1 (arginyl-tRNA synthetase 1) resulted in: mean correlation with KSR1 profile -0.22; mean distance from KSR1 profile 2.64.
Depletion of GZMA (granzyme A) gave: mean correlation with KSR1 profile 0.794; mean distance from KSR1 profile 0.539.
CHRNB1 (cholinergic receptor nicotinic beta 1 subunit) showed mean correlation with KSR1 profile -0.0599; mean distance from KSR1 profile 1.83.
For HNRNPU (heterogeneous nuclear ribonucleoprotein U), the values are mean correlation with KSR1 profile -0.0432; mean distance from KSR1 profile 1.8.
MAPK8 (mitogen-activated protein kinase 8) showed mean correlation with KSR1 profile 0.114; mean distance from KSR1 profile 1.91.
Against C4BPA (complement component 4 binding protein alpha), the values are mean correlation with KSR1 profile -0.488; mean distance from KSR1 profile 2.05.
PHACTR2 (phosphatase and actin regulator 2) gave mean correlation with KSR1 profile -0.678; mean distance from KSR1 profile 2.32.
For VAT1 (vesicle amine transport 1) the deposit lists mean correlation with KSR1 profile -0.354; mean distance from KSR1 profile 2.27.
TTLL5 (tubulin tyrosine ligase like 5) gave mean correlation with KSR1 profile -0.00684; mean distance from KSR1 profile 1.44.
Silencing of CNTLN (centlein) gave: mean correlation with KSR1 profile -0.467; mean distance from KSR1 profile 2.62.
Depletion of FMR1 (fragile X messenger ribonucleoprotein 1) gave: mean correlation with KSR1 profile -0.117; mean distance from KSR1 profile 3.29.
Depletion of PCSK4 (proprotein convertase subtilisin/kexin type 4) came out at: mean correlation with KSR1 profile 0.452; mean distance from KSR1 profile 0.961.
Knock-down of ITGB1BP1 (integrin subunit beta 1 binding protein 1) came out at: mean correlation with KSR1 profile 0.341; mean distance from KSR1 profile 3.61.
For GJB4 (gap junction protein beta 4), the entry reads mean correlation with KSR1 profile 0.689; mean distance from KSR1 profile 1.55.
For MAP3K6 (mitogen-activated protein kinase kinase kinase 6) the deposit lists mean correlation with KSR1 profile 0.618; mean distance from KSR1 profile 1.51.
For MIER1 (MIER1 transcriptional regulator), the entry reads mean correlation with KSR1 profile 0.394; mean distance from KSR1 profile 1.29.
Against ATAD3B (ATPase family AAA domain containing 3B) the deposit lists mean correlation with KSR1 profile 0.393; mean distance from KSR1 profile 1.8.
ZG16B (zymogen granule protein 16B) gave mean correlation with KSR1 profile 0.449; mean distance from KSR1 profile 2.76.
KANK2 (KN motif and ankyrin repeat domains 2) gave mean correlation with KSR1 profile -0.324; mean distance from KSR1 profile 2.16.

Limited to “mean distance from KSR1 profile” (5 entries from above):
VAT1 (vesicle amine transport 1) = 2.27
TTLL5 (tubulin tyrosine ligase like 5) = 1.44
CNTLN (centlein) = 2.62
FMR1 (fragile X messenger ribonucleoprotein 1) = 3.29
PCSK4 (proprotein convertase subtilisin/kexin type 4) = 0.961
